All values are in %. The controls that fix the scale are not given in the record; negative values are as filed. Compounds were drawn at random from those tested, without regard to their results.

Sequences of proteins named here, by UniProt entry; tags and fusion partners are left off.
UniProt E9BF75, entry or part of it: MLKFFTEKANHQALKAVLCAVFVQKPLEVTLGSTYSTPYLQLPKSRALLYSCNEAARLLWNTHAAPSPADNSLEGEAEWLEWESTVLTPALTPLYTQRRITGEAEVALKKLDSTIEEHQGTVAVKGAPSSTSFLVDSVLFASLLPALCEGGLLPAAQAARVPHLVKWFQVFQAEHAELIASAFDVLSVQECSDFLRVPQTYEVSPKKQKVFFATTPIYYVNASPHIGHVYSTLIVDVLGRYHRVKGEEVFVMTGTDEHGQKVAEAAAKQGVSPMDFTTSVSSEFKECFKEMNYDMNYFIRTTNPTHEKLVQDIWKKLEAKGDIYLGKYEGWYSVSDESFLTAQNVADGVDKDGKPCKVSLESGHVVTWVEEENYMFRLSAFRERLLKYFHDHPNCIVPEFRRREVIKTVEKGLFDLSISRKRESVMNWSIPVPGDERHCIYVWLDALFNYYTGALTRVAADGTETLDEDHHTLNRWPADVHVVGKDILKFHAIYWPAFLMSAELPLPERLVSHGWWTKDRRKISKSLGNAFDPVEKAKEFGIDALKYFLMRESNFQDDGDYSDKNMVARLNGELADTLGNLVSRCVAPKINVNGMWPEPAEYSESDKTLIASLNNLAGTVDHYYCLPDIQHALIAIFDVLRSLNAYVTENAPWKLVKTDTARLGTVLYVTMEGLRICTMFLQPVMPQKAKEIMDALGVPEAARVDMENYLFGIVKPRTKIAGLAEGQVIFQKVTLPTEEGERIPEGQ

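Primary screen of methionyl-tRNA synthetase; the read-out is not stated. Target: Methionyl-tRNA synthetase (putative), Leishmania donovani (UniProt E9BF75). The test concentration is not given. Values are per cent inhibition. Of about 68,000 compounds tested this way, about 24 (0.035%) reached 50% or more in at least one test.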

compound: Cc1cccc(C(=O)NCc2cccnc2N(C)C)n1
inhibition: 13.72

compound: CCc1cc(C)c(C(=O)N2CCCC(c3nnn[nH]3)C2)o1 (stereo not drawn)
inhibition: 6.361

compound: CSCCC(NC(=O)c1ccco1)C(=O)N(C)Cc1ccsc1 (stereo not drawn)
inhibition: 8.659

compound: Cc1ccoc1C(=O)NC1CCN(Cc2cccc3c2OCCO3)CC1
inhibition: 22.92

compound: Cc1cnn(C2CN(CC(=O)NCC(C)C)C2)c1
inhibition: 32

compound: COc1cccc(-c2n[nH]cc2-c2nc(CC3CCN(C)CC3)no2)c1
inhibition: 13.07

compound: COc1c(C2CCCN2C(=O)c2nccnc2N)c(C)nn1C (stereo not drawn)
inhibition: 11.97

compound: Cc1cc(C)c(CNC(=O)NCC(O)c2ccccc2)c(=O)[nH]1 (stereo not drawn)
inhibition: 18.29

compound: Cc1nn(C)c(C)c1C(=O)N1CCN(c2ccncc2Cl)CC1
inhibition: 19.63

compound: CCc1cc(N2CCC(NC3CCOCC3)CC2)nc(N(C)C)n1
inhibition: 13.61

compound: Cc1cc(C)c(CNC(=O)N(C)Cc2sccc2C)c(=O)[nH]1
inhibition: 19.69

compound: CC(C)(C)n1cc(C(=O)NCCCn2ccnc2)c2cccnc21
inhibition: 8.042

compound: O=C(c1ccoc1)N1CCC(NCc2ccccc2-n2ccnc2)CC1
inhibition: 1.955

compound: Cc1cccc(CS(=O)(=O)Cc2ccn(C)c(=O)c2)c1
inhibition: 14.29

compound: Cn1cncc1C(=O)N1C[C@@H]2CCN(c3cnccn3)C[C@@H]2C1
inhibition: 13.45

compound: CSC(CNS(N)(=O)=O)c1cccc(Cl)c1 (stereo not drawn)
inhibition: 4.749

compound: Cc1csc(N2CCN(CC(=O)NC3CCOCC3)CC2C)n1 (stereo not drawn)
inhibition: 18.73

compound: O=C(O)C1(Cc2cccc(-c3ccc(F)c(F)c3)c2)CCOCC1
inhibition: 11.99

compound: N#Cc1ccc(F)c(CNC(=O)NCCC(=O)NC2CCCC2)c1
inhibition: 11.5

compound: CN1CCN([C@@H]2CCN(CC3=Cc4cc(Cl)ccc4OC3)C[C@H]2O)CC1
inhibition: 9.756

compound: Cc1cnn(CCNCC(=O)NCc2ccccc2)c1
inhibition: 11.02

compound: COCC(=O)N1CCc2ccc(=O)n(Cc3csc(C)n3)c2CC1
inhibition: 10.8

compound: Cc1nn(C)c(C)c1-c1ccc(=O)n(C(C)C(=O)NC2CC2)n1 (stereo not drawn)
inhibition: 4.651

compound: Cc1nn(C)c(C)c1S(=O)(=O)N1C[C@@H]2C[C@@H](C)O[C@@H]2C1
inhibition: 3.361

compound: CN1CCOC(CNCc2coc(-c3cccs3)n2)C1 (stereo not drawn)
inhibition: 2.347

compound: CS(=O)(=O)c1nccn1Cc1ccc(Cl)cc1
inhibition: 10.42

compound: CC(=O)N1CCC(c2cncc(Cl)n2)CC1
inhibition: 9.574

compound: Cc1ccsc1CN(C)C(=O)c1cc2c([nH]c1=O)CCCC2=O
inhibition: 14.92

compound: Cc1cccc(C(C(=O)NCc2csc(-c3ncccn3)n2)N(C)C)c1 (stereo not drawn)
inhibition: 6.516

compound: CC(C)c1cc2c(O)nc(CSCC(=O)NCc3ccncc3)nc2s1
inhibition: 10.13

compound: COC(=O)CNC(=O)CCCn1cnc2ccccc2c1=O
inhibition: 12.37

compound: Cc1ncc(C(=O)N2CC(C(=O)N3CCCCCC3)C2)c(C)n1
inhibition: 15.94

compound: O=C1[C@H]2CN(c3ncccn3)C[C@H]2CN1CCN1CCCC1
inhibition: 7.186

Repeated from the top, 3 entries:

compound,inhibition
Cc1cccc(C(=O)NCc2cccnc2N(C)C)n1,13.72
CCc1cc(C)c(C(=O)N2CCCC(c3nnn[nH]3)C2)o1 (stereo not drawn),6.361
CSCCC(NC(=O)c1ccco1)C(=O)N(C)Cc1ccsc1 (stereo not drawn),8.659

The values are deposited in ChEMBL (CHEMBL3988442, “University of Dundee, Small-Polar-MMV Screening Library” (2021)).